Laboratory results published in US20240116999A1, “CONFORMATIONALLY CONSTRAINED GLUCAGON ANALOGUES AND THEIR USE IN GLUCAGON-SINGLE CHAIN INSULIN FUSION PROTEINS” (THE TRUSTEES OF INDIANA UNIVERSITY, priority 2021, published 2024).
Some entries share one result that the patent states for a list of compounds.

Experiment: Thioflavin T (ThT) fibrillation assay
Type: physicochemical
Details: FIG. 6; phosphate-buffered saline pH 7.4, 100 μM, 37° C., constant agitation; except one well of the linear [D-Cys20, Cys23] analogue
Protocol: Fibrillation Assays. We employed an automated plate-based fluorescent device to monitor the time course of peptide fibrillation using a Thioflavin T (ThT) assay. This assay is based on the THT fluorescence emission at 480 nm upon binding to mature fibrils when excited at 440 nm. The assay was performed by preparing stock solutions of the fusion protein and the individual peptides in either NaCl 0.9% (pH 2.5) or PBS (pH 7.4). Our experience has identified 100-μM final concentration as optimal fibrillation conditions for glucagon analogues. Stock solutions were diluted with NaCl 0.9% or 1X PBS buffer, pH adjusted (with 1N HCl or 1N NaOH) mixed with Thioflavin-T (THT) at a final concentration of 16 μM, centrifuged, and 250 μl of the sample were placed on a 96-well plate with 4-10 technical replicates. Measurements were done every 15 minutes and the sample agitated at 1096 cpm at 37° C. on a Synergy H1 microplate reader (BioTek, Winooski, VT). The lag time, defined as the time-point at which fibrillation starts its exponential phase, was considered as the point at which fluorescence was 3 times the background signal.

Row | Substance | protection from forming fibrils (duration)
1 | HSQGTFTSDYSOYLDSOOA[D-Cys]DFCQWLMNTEEK [[D-Cys20-Cys23] L] | at least 2 weeks
2 | HSQGTFTSDYSOYLDSOOAQDFV[D-Cys]WLCNTEEK [[D-Cys24-Cys27] L] | at least 2 weeks
